In patent publication US20060034860A1:
Results are given in words; binding and its absence hold for the method and conditions named. Some entries that bind do so weakly or less than the wild type.

By UniProt entry, the sequences of proteins in these tests, tags left out. Residues count along the entry.
UniProt Q99941, residues 2-703: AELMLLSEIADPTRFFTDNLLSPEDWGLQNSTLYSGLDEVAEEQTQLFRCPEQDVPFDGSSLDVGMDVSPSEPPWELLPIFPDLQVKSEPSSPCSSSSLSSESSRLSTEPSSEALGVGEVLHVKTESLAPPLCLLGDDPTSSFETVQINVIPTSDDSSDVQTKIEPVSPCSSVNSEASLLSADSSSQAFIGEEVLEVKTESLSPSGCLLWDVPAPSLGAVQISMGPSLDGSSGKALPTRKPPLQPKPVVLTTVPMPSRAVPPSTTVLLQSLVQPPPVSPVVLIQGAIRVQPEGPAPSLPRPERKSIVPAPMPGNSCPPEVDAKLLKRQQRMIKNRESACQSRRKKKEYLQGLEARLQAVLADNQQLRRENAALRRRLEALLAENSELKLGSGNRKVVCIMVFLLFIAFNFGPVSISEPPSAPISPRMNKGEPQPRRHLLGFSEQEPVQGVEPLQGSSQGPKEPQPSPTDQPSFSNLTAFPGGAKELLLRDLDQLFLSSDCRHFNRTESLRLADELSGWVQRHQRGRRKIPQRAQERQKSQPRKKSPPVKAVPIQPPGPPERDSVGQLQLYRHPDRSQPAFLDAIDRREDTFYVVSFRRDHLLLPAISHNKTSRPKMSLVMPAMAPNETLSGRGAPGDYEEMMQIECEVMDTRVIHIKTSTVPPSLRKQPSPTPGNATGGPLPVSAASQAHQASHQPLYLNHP
UniProt Q9Y4K1: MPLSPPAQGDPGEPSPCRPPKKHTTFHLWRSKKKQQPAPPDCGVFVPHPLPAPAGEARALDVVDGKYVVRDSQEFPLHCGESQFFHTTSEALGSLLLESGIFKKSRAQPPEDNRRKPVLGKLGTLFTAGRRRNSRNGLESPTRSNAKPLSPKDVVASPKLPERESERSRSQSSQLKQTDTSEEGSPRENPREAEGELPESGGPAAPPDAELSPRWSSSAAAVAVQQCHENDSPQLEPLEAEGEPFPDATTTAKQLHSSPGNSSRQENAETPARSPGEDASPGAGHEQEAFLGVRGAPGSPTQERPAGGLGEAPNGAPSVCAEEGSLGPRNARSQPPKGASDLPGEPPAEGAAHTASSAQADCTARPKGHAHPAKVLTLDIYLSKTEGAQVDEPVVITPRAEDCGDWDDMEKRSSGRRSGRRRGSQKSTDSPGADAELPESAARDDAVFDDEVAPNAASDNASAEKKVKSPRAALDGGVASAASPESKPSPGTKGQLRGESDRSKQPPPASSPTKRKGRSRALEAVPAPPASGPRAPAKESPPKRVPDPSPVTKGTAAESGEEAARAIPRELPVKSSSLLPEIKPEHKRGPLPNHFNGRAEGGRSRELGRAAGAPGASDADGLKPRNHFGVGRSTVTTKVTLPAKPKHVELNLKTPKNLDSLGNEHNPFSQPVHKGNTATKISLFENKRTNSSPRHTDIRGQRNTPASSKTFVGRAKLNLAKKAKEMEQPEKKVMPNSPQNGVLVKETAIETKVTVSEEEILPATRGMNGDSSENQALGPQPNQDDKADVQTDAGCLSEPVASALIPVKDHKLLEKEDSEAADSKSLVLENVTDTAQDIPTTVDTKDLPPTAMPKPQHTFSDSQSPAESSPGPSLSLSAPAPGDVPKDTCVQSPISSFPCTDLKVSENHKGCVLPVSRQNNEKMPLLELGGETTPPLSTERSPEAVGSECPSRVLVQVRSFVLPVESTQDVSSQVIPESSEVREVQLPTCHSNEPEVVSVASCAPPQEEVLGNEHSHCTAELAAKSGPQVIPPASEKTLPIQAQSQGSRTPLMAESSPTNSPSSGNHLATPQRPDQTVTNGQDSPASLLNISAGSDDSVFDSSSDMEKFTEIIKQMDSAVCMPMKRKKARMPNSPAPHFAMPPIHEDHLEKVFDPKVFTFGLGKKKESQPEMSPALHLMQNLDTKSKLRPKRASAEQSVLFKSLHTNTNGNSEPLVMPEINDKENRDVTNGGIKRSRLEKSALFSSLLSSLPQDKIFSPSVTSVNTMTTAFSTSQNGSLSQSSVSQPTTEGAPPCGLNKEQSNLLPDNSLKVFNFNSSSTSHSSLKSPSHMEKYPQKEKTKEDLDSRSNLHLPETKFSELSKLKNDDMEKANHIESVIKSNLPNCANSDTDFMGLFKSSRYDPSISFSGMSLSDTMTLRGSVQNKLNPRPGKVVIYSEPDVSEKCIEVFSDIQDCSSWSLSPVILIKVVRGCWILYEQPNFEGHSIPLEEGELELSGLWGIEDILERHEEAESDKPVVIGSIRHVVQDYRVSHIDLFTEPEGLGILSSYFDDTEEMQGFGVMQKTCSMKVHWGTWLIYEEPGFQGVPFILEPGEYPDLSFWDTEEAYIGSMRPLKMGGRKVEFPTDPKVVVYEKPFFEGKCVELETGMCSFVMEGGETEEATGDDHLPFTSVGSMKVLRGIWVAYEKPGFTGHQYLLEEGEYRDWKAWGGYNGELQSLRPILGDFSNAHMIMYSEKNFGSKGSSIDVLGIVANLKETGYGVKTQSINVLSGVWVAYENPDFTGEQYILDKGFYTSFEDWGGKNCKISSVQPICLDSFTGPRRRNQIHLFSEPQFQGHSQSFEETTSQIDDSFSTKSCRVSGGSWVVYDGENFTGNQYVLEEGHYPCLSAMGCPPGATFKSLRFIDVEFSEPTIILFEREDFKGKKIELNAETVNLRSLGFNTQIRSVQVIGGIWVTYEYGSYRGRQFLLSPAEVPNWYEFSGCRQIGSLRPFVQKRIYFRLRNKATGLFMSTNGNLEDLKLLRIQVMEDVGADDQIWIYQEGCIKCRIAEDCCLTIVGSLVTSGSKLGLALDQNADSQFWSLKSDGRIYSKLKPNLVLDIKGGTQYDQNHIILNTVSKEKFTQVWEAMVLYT
UniProt Q9Y5L0, residues 61-333: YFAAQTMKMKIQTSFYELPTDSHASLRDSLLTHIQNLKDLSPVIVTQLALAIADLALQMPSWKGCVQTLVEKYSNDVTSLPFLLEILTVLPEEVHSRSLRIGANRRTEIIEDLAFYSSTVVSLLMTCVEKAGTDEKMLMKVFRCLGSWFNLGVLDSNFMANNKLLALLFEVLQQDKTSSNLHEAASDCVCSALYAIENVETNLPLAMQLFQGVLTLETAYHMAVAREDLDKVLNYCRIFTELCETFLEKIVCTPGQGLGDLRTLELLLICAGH

How the values were obtained:
[1] = target: cytoplasmic domain of HIV-1 Env TM Gp41, bait TM_v1 (HIV-1 isolate YU2) (UniProt P35961); test: yeast two-hybrid screen, cytoplasmic domain of TM Gp41 as bait
[2] = target: HIV-1 protease, bait PR_v1 (HIV-1 isolate YU2) (UniProt P35963); test: yeast two-hybrid screen, bait PR_v1 (pB27), CEMC7 oligo dT primed cDNA prey library; table of bait-prey interactions
[3] = target: HIV-1 protease, bait PR_v1 (HIV-1 isolate YU2) (UniProt P35963); test: yeast two-hybrid screen, bait PR_v1 (pB27), CEMC7 random primed cDNA prey library; table of bait-prey interactions
[4] = target: HIV-1 protease, bait PR_v1 (HIV-1 isolate YU2) (UniProt P35963); test: yeast two-hybrid screen, HIV-1 protease bait
[5] = target: HIV-1 Integrase (IN), bait IN (HIV-1 isolate YU2) (UniProt P35963); test: yeast two-hybrid screen, IN bait, random primed and oligo dT cDNA prey libraries
[6] = target: HIV-1 Integrase (IN), bait IN (HIV-1 isolate YU2) (UniProt P35963); test: yeast two-hybrid screen, bait IN (pB27), CEMC7 oligo dT primed cDNA prey library; table of bait-prey interactions
[7] = target: HIV-1 IN fragments from the library of HIV genome DNA random fragments (HIV-1 isolate YU2) (UniProt P35963); test: secondary yeast two-hybrid screen, Transportin-SR aa61-aa333 bait against the library of HIV genome DNA random fragments
[8] = target: HIV-1 IN fragments from the library of HIV genome DNA random fragments (HIV-1 isolate YU2) (UniProt P35963); test: secondary yeast two-hybrid screen, VBP1 full length bait against the library of HIV genome DNA random fragments

ATF6 beta, prey fragments (from UniProt Q99941 2-703)
binding [1]: binds

Human AIM1 (prey030612), Absent in Melanoma, prey fragments (from UniProt Q9Y4K1 1-2131)
binding [2]: binds
binding [3]: binds
binding [4]: binds

Human MCM7 (prey007151), prey fragments (from UniProt P33993 2-719)
binding [5]: binds
binding [6]: binds

Transportin-SR (fragment aa61-aa333), bait of the secondary screen (from UniProt Q9Y5L0 61-333)
binding [7]: binds

VBP1 full length (bait of the secondary screen) (from UniProt P61758 2-197)
binding [8]: binds
